# Source: article PMC9908889
# No constants are given. Whether binding was seen depends on the method and setting. Some entries that bind do so weakly or less than the wild type. For some assays here: Tags and fused reporters may be left off the sequences shown.
# T1: ^15N-labeled MORFWH2 (aa 100–182) (human) (UniProt Q8WYB5)
# T1 sequence: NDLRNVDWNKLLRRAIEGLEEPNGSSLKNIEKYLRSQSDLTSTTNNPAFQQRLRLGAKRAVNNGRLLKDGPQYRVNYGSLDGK
# B1: BRPF1 (aa 89–139) (domain or fragment, UniProt P55201 89-139)
# chain: VMSYAQAQRMVEVDLHGRVHRISIFDNLDVVSEDEEAPEEAPENGSNKENT
# B2: His-MORFWH1 (aa 5–84) (domain or fragment, UniProt Q8WYB5 5-84)
# chain: ANPLYTEWILEAIQKIKKQKQRPSEERICHAVSTSHGLDKKTVSEQLELSVQDGSVLKVTNKGLASYKDPDNPGRFSSVK
# What was measured:
# [1] = molecular target: MORF_(WH2-DPF-MYST) (aa 100–703 with additional 3 lysine residues at the C-terminus) (human) (UniProt Q8WYB5); experiment: co-expression and co-purification; MORF_(WH2-DPF-MYST) co-expressed and purified with BRPF1 (aa 89–139); which chain carried the affinity tag is not stated
# [2] = molecular target: T1, ^15N-labeled MORFWH2 (aa 100–182) (human); experiment: NMR titration; 1H,15N HSQC of 0.1–0.2 mM 15N-labeled MORFWH2 with increasing amount of unlabeled His-MORFWH1, 298 K; both purified
Binder,binding [1],binding [2]
B1,binds,–
B2,–,no binding
